Measurements reported in PubChem BioAssay AID1259254 (NCATS, 2017)

- Test: 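Gene knock-downs that lead to re-replication, shown by excess G2 DNA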 (primary screen)
- Cells: human HCT116 colorectal cancer cells
- Knock-down reagent: single siRNA against human genes
- Time to read-out: 3 days
- Read-out: 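Imaged Hoechst DNA stain sorts each cell into a cycle phase by DNA amount; per plate, G2 fraction set to 0% for non-targeting and 100% for GMNN siRNA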
- Direction: G2 robust z-score: higher = more G2 cells, more excess DNA replication
- Active means: 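Active siRNAs have a G2 robust z of 5 or more median absolute deviations over the median, which in these data means about 38% or higher of GMNN control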
This is one part, drawn at random, of about 59,000 reagents tested. Over the whole deposit, about 1,550 (2.6%) were called active. 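G2 share is only a proxy for re-replication; each gene was hit by three separate siRNAs, and active genes were retested.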 The numbers tell different reagents against one gene apart. Further read-outs or replicates are left out here. Not stated in the record: the amount of reagent.

Gene | reagent | G2 robust z-score | activity call
PRKCQ-AS1 (PRKCQ antisense RNA 1) | 1 | -0.383 | inactive
PRKCQ-AS1 (PRKCQ antisense RNA 1) | 2 | -0.759 | inactive
PRKCQ-AS1 (PRKCQ antisense RNA 1) | 3 | -0.709 | inactive
NECAB3 (N-terminal EF-hand calcium binding protein 3) | 1 | -0.0453 | inactive
NECAB3 (N-terminal EF-hand calcium binding protein 3) | 2 | 1.03 | inactive
NECAB3 (N-terminal EF-hand calcium binding protein 3) | 3 | -1.13 | inactive
ZNF418 (zinc finger protein 418) | 1 | 0.387 | inactive
ZNF418 (zinc finger protein 418) | 2 | 0.771 | inactive
ZNF418 (zinc finger protein 418) | 3 | -0.081 | inactive
ZNF418 (zinc finger protein 418) | 4 | -0.646 | inactive
ZNF418 (zinc finger protein 418) | 5 | 0.151 | inactive
ZNF418 (zinc finger protein 418) | 6 | -0.675 | inactive
CDK20 (cyclin dependent kinase 20) | 1 | -0.157 | inactive
CDK20 (cyclin dependent kinase 20) | 2 | -0.293 | inactive
CDK20 (cyclin dependent kinase 20) | 3 | 1.41 | inactive
FGL1 (fibrinogen like 1) | 1 | 0.336 | inactive
FGL1 (fibrinogen like 1) | 2 | -0.277 | inactive
FGL1 (fibrinogen like 1) | 3 | -0.381 | inactive
FBXW7 (F-box and WD repeat domain containing 7) | 1 | 0.267 | inactive
FBXW7 (F-box and WD repeat domain containing 7) | 2 | -0.196 | inactive
FBXW7 (F-box and WD repeat domain containing 7) | 3 | -1.1 | inactive
CACNG1 (calcium voltage-gated channel auxiliary subunit gamma 1) | 1 | -0.888 | inactive
CACNG1 (calcium voltage-gated channel auxiliary subunit gamma 1) | 2 | 0.823 | inactive
CACNG1 (calcium voltage-gated channel auxiliary subunit gamma 1) | 3 | 2.86 | inactive
PHLPP2 (PH domain and leucine rich repeat protein phosphatase 2) | 1 | -1.07 | inactive
PHLPP2 (PH domain and leucine rich repeat protein phosphatase 2) | 2 | -0.712 | inactive
PHLPP2 (PH domain and leucine rich repeat protein phosphatase 2) | 3 | 0.218 | inactive
NCS1 (neuronal calcium sensor 1) | 1 | -1 | inactive
NCS1 (neuronal calcium sensor 1) | 2 | -0.526 | inactive
NCS1 (neuronal calcium sensor 1) | 3 | -0.382 | inactive
TAL1 | 1 | -0.609 | inactive
TAL1 | 2 | 4.44 | inactive
TAL1 | 3 | -0.582 | inactive
NKX6-2 (NK6 homeobox 2) | 1 | 0.723 | inactive
NKX6-2 (NK6 homeobox 2) | 2 | 0.731 | inactive
NKX6-2 (NK6 homeobox 2) | 3 | -0.905 | inactive

Sorted by “G2 robust z-score” (lowest first): 7 of the entries above
Gene | reagent | G2 robust z-score | activity call
NECAB3 (N-terminal EF-hand calcium binding protein 3) | 3 | -1.13 | inactive
ZNF418 (zinc finger protein 418) | 4 | -0.646 | inactive
ZNF418 (zinc finger protein 418) | 3 | -0.081 | inactive
NECAB3 (N-terminal EF-hand calcium binding protein 3) | 1 | -0.0453 | inactive
ZNF418 (zinc finger protein 418) | 1 | 0.387 | inactive
ZNF418 (zinc finger protein 418) | 2 | 0.771 | inactive
NECAB3 (N-terminal EF-hand calcium binding protein 3) | 2 | 1.03 | inactive

The listing continues:
Gene | reagent | G2 robust z-score | activity call
LRRC59 (leucine rich repeat containing 59) | 1 | 0.605 | inactive
LRRC59 (leucine rich repeat containing 59) | 2 | 1.38 | inactive
LRRC59 (leucine rich repeat containing 59) | 3 | 0.574 | inactive
LUZP4 (leucine zipper protein 4) | 1 | -0.871 | inactive
LUZP4 (leucine zipper protein 4) | 2 | 0.203 | inactive
LUZP4 (leucine zipper protein 4) | 3 | -0.555 | inactive
C19orf18 (chromosome 19 open reading frame 18) | 1 | -0.45 | inactive
C19orf18 (chromosome 19 open reading frame 18) | 2 | -0.236 | inactive
C19orf18 (chromosome 19 open reading frame 18) | 3 | -0.838 | inactive
CELF4 (CUGBP Elav-like family member 4) | 1 | -1.17 | inactive
CELF4 (CUGBP Elav-like family member 4) | 2 | -0.352 | inactive
CELF4 (CUGBP Elav-like family member 4) | 3 | -0.493 | inactive
GNB1 (G protein subunit beta 1) | 1 | 6.69 | active
GNB1 (G protein subunit beta 1) | 2 | -0.617 | inactive
GNB1 (G protein subunit beta 1) | 3 | 2.1 | inactive
PGLYRP4 (peptidoglycan recognition protein 4) | 1 | -0.644 | inactive
PGLYRP4 (peptidoglycan recognition protein 4) | 2 | -0.322 | inactive
PGLYRP4 (peptidoglycan recognition protein 4) | 3 | -1.09 | inactive
SVIL (supervillin) | 1 | -1.9 | inactive
SVIL (supervillin) | 2 | -0.768 | inactive
SVIL (supervillin) | 3 | -0.808 | inactive
PPP1R42 (protein phosphatase 1 regulatory subunit 42) | 1 | 0.538 | inactive
PPP1R42 (protein phosphatase 1 regulatory subunit 42) | 2 | -0.725 | inactive
PPP1R42 (protein phosphatase 1 regulatory subunit 42) | 3 | 4.29 | inactive
TMEM11 (transmembrane protein 11) | 1 | 3.33 | inactive
TMEM11 (transmembrane protein 11) | 2 | -0.946 | inactive
TMEM11 (transmembrane protein 11) | 3 | 1.25 | inactive
NDST1 (N-deacetylase and N-sulfotransferase 1) | 1 | 0.811 | inactive
NDST1 (N-deacetylase and N-sulfotransferase 1) | 2 | -0.948 | inactive
NDST1 (N-deacetylase and N-sulfotransferase 1) | 3 | -1.21 | inactive
CSAD (cysteine sulfinic acid decarboxylase) | 1 | -0.829 | inactive
CSAD (cysteine sulfinic acid decarboxylase) | 2 | -1.4 | inactive
CSAD (cysteine sulfinic acid decarboxylase) | 3 | 2.69 | inactive
